These are yes or no findings as the source states them, for the method shown. Binding seen in cells or lysates may run through a third protein. Some entries that bind do so weakly or less than the wild type. For part of these data: Where a sequence is shown, tags or fusion partners need not be part of it. Blank lines part the entries; values can stand above or below the binder they belong to.
Assays:
[1] = biological target: His-tagged SP1 expressed from pcDNA3.1-SP1 (human), P08047; assay: co-IP; conditions: remark: other sources report otherwise
[2] = biological target: endogenous SP1 (human (endogenous in HEK293 and HCT 116)), P08047; assay: co-IP; conditions: remark: other sources report otherwise

binding [1]: binds
B1: Flag-tagged p68 (DDX5) expressed from pIRES-p68, P17844 1-614 (protein)
chain: MSGYSSDRDRGRDRGFGAPRFGGSRAGPLSGKKFGNPGEKLVKKKWNLDELPKFEKNFYQEHPDLARRTAQEVETYRRSKEITVRGHNCPKPVLNFYEANFPANVMDVIARQNFTEPTAIQAQGWPVALSGLDMVGVAQTGSGKTLSYLLPAIVHINHQPFLERGDGPICLVLAPTRELAQQVQQVAAEYCRACRLKSTCIYGGAPKGPQIRDLERGVEICIATPGRLIDFLECGKTNLRRTTYLVLDEADRMLDMGFEPQIRKIVDQIRPDRQTLMWSATWPKEVRQLAEDFLKDYIHINIGALELSANHNILQIVDVCHDVEKDEKLIRLMEEIMSEKENKTIVFVETKRRCDELTRKMRRDGWPAMGIHGDKSQQERDWVLNEFKHGKAPILIATDVASRGLDVEDVKFVINYDYPNSSEDYIHRIGRTARSTKTGTAYTFFTPNNIKQVSDLISVLREANQAINPKLLQLVEDRGSGRSRGRGGMKDDRRDRYSAGKRGGFNTFRDRENYDRGYSSLLKRDFGAKTQNGVYSAANYTNGSFGSNFVSAGIQTSFRTGNPTGTYQNGYDSTQQYGSNVPNMHNGMNQQAYAYPATAAAPMIGYPMPTGYSQ

binding [2]: binds | binding [1]: binds
B2: endogenous p68 (DDX5), P17844 1-614 (protein)
chain: B1 chain

— paper doi:10.1101/2023.04.29.538802
